Experimental data from ChEMBL document CHEMBL4316593 (Eur J Med Chem, 2019).
This continues a long series; more values of the same kind are listed elsewhere.

What was measured:
Type in all cases: cell-based
Details in all cases: U-87MG ATCC
[1] = Inhibition of RTK/PI3K/AKT/mTOR signaling in human U87 cells assessed as down regulation of ZNF654 gene expression at cytotoxic IC50 measured after 48 hrs relative to control
[2] = Inhibition of RTK/PI3K/AKT/mTOR signaling in human U87 cells assessed as down regulation of SH3GL1 gene expression at cytotoxic IC50 measured after 48 hrs relative to control
[3] = Inhibition of RTK/PI3K/AKT/mTOR signaling in human U87 cells assessed as down regulation of ARHGAP1 gene expression at cytotoxic IC50 measured after 48 hrs relative to control
[4] = Inhibition of RTK/PI3K/AKT/mTOR signaling in human U87 cells assessed as down regulation of PAPD5 gene expression at cytotoxic IC50 measured after 48 hrs relative to control
[5] = Inhibition of RTK/PI3K/AKT/mTOR signaling in human U87 cells assessed as down regulation of EIF5 gene expression at cytotoxic IC50 measured after 48 hrs relative to control
[6] = Inhibition of RTK/PI3K/AKT/mTOR signaling in human U87 cells assessed as down regulation of TATDN3 gene expression at cytotoxic IC50 measured after 48 hrs relative to control
[7] = Inhibition of RTK/PI3K/AKT/mTOR signaling in human U87 cells assessed as down regulation of MYO10 gene expression at cytotoxic IC50 measured after 48 hrs relative to control
[8] = Inhibition of RTK/PI3K/AKT/mTOR signaling in human U87 cells assessed as down regulation of CCNA2 gene expression at cytotoxic IC50 measured after 48 hrs relative to control
[9] = Inhibition of RTK/PI3K/AKT/mTOR signaling in human U87 cells assessed as up regulation of LYR motif containing 2 gene expression at cytotoxic IC50 measured after 48 hrs relative to control
[10] = Inhibition of RTK/PI3K/AKT/mTOR signaling in human U87 cells assessed as down regulation of HAUS5 gene expression at cytotoxic IC50 measured after 48 hrs relative to control
[11] = Inhibition of RTK/PI3K/AKT/mTOR signaling in human U87 cells assessed as up regulation of PLEKHB1 gene expression at cytotoxic IC50 measured after 48 hrs relative to control
[12] = Inhibition of RTK/PI3K/AKT/mTOR signaling in human U87 cells assessed as up regulation of solute carrier family 37 member 4 gene expression at cytotoxic IC50 measured after 48 hrs relative to control
[13] = Inhibition of RTK/PI3K/AKT/mTOR signaling in human U87 cells assessed as down regulation of NR4A3 gene expression at cytotoxic IC50 measured after 48 hrs relative to control
[14] = Inhibition of RTK/PI3K/AKT/mTOR signaling in human U87 cells assessed as down regulation of PGM2 gene expression at cytotoxic IC50 measured after 48 hrs relative to control
[15] = Inhibition of RTK/PI3K/AKT/mTOR signaling in human U87 cells assessed as down regulation of HELZ2 gene expression at cytotoxic IC50 measured after 48 hrs relative to control
[16] = Inhibition of RTK/PI3K/AKT/mTOR signaling in human U87 cells assessed as down regulation of CXorf57 gene expression at cytotoxic IC50 measured after 48 hrs relative to control
[17] = Inhibition of RTK/PI3K/AKT/mTOR signaling in human U87 cells assessed as down regulation of STIL gene expression at cytotoxic IC50 measured after 48 hrs relative to control
[18] = Inhibition of RTK/PI3K/AKT/mTOR signaling in human U87 cells assessed as up regulation of GALNT9 gene expression at cytotoxic IC50 measured after 48 hrs relative to control
[19] = Inhibition of RTK/PI3K/AKT/mTOR signaling in human U87 cells assessed as down regulation of DECR1 gene expression at cytotoxic IC50 measured after 48 hrs relative to control
[20] = Inhibition of RTK/PI3K/AKT/mTOR signaling in human U87 cells assessed as down regulation of ENTPD7 gene expression at cytotoxic IC50 measured after 48 hrs relative to control
[21] = Inhibition of RTK/PI3K/AKT/mTOR signaling in human U87 cells assessed as up regulation of solute carrier family 27 member 1 gene expression at cytotoxic IC50 measured after 48 hrs relative to control
[22] = Inhibition of RTK/PI3K/AKT/mTOR signaling in human U87 cells assessed as down regulation of NEAT1 gene expression at cytotoxic IC50 measured after 48 hrs relative to control
[23] = Inhibition of RTK/PI3K/AKT/mTOR signaling in human U87 cells assessed as down regulation of STK4 gene expression at cytotoxic IC50 measured after 48 hrs relative to control
[24] = Inhibition of RTK/PI3K/AKT/mTOR signaling in human U87 cells assessed as up regulation of family with sequence similarity 210 member A gene expression at cytotoxic IC50 measured after 48 hrs relative to control
[25] = Inhibition of RTK/PI3K/AKT/mTOR signaling in human U87 cells assessed as up regulation of KIAA1522 gene expression at cytotoxic IC50 measured after 48 hrs relative to control
[26] = Inhibition of RTK/PI3K/AKT/mTOR signaling in human U87 cells assessed as up regulation of CFAP74 gene expression at cytotoxic IC50 measured after 48 hrs relative to control
[27] = Inhibition of RTK/PI3K/AKT/mTOR signaling in human U87 cells assessed as up regulation of KDM1A gene expression at cytotoxic IC50 measured after 48 hrs relative to control
[28] = Inhibition of RTK/PI3K/AKT/mTOR signaling in human U87 cells assessed as up regulation of PC-esterase domain containing 1A gene expression at cytotoxic IC50 measured after 48 hrs relative to control
[29] = Inhibition of RTK/PI3K/AKT/mTOR signaling in human U87 cells assessed as up regulation of zinc finger MYND-type containing 8 gene expression at cytotoxic IC50 measured after 48 hrs relative to control
[30] = Inhibition of RTK/PI3K/AKT/mTOR signaling in human U87 cells assessed as up regulation of PLIN3 gene expression at cytotoxic IC50 measured after 48 hrs relative to control
[31] = Inhibition of RTK/PI3K/AKT/mTOR signaling in human U87 cells assessed as up regulation of solute carrier family 35 member A5 gene expression at cytotoxic IC50 measured after 48 hrs relative to control
[32] = Inhibition of RTK/PI3K/AKT/mTOR signaling in human U87 cells assessed as up regulation of heparin binding growth factor gene expression at cytotoxic IC50 measured after 48 hrs relative to control

## CC(=O)C(=NNc1ccccc1C#N)C(C)=O
[1]
  log2FC: -0.659
[2]
  log2FC: -0.539
[3]
  log2FC: -0.563
[4]
  log2FC: -0.82
[5]
  log2FC: -0.963
[6]
  log2FC: -1.15
[7]
  log2FC: -0.539
[8]
  log2FC: -1.07
[9]
  log2FC: 0.785
[10]
  log2FC: -1.09
[11]
  log2FC: 1.91
[12]
  log2FC: 0.857
[13]
  log2FC: -2.4
[14]
  log2FC: -0.768
[15]
  log2FC: -1.32
[16]
  log2FC: -1.22
[17]
  log2FC: -0.963
[18]
  log2FC: 2.2
[19]
  log2FC: -0.866
[20]
  log2FC: -0.854
[21]
  log2FC: 1.41
[22]
  log2FC: -0.941
[23]
  log2FC: -0.781
[24]
  log2FC: 1.01
[25]
  log2FC: 0.908
[26]
  log2FC: 2.46
[27]
  log2FC: 0.382
[28]
  log2FC: 1.12
[29]
  log2FC: 1.07
[30]
  log2FC: 0.53
[31]
  log2FC: 0.705
[32]
  log2FC: 0.74
